Measurements published in the supplement of paper PMC4683952.
The list shows a part of the results. Rule as the data show it: active = 2 or more and inactive = the rest. Repeats in this data set agree poorly, so a single value says little.

The compounds below were run on Lgr5 (MarsCy1-Lgr5-EGFP, U2OS) (assay: cell-surface Lgr5 expression (SCi1 fluorescence, background-subtracted) relative to WT DMSO (fold of DMSO control); higher = more Lgr5 at the plasma membrane). Details: U2OS MarsCy1-Lgr5-EGFP stable; treatment time: overnight; library: ActiProbe-5K (TimTec); 25 µM.

| SMILES | cell-surface Lgr5 expression |
| --- | --- |
| Cc1nc2sc3c(c2c(=O)o1)CCC(C)C3 (configuration not stated) | inactive: 1.08 |
| Brc1ccc(-c2nc3sc(-c4ccc(Br)cc4)nc3s2)cc1 | inactive: 1.23 |
| Oc1ccc2ccccc2c1C1Nc2cccc3cccc(c23)N1 | inactive: 0.889 |
| Cc1ccc2nc(Cl)cc(C)c2c1 | inactive: 1.26 |
| CC1(C)CC(N2CN(C3CC(C)(C)NC(C)(C)C3)CN(C3CC(C)(C)NC(C)(C)C3)C2)CC(C)(C)N1 | inactive: 1.19 |
| CCOCc1nnc(NC(=O)C(C)(C)C)s1 | inactive: 1.3 |
| CCCCCCCCCCCCn1c(SCCC)nc2c1c(=O)[nH]c(=O)n2C | inactive: 1.36 |
| Cc1cnnn1-c1nonc1-n1cccc1 | inactive: 0.947 |
| CC1(C)C2CCC1(C)C(NC(=O)CCOCCC(N)=O)C2 (configuration not stated) | inactive: 1.65 |
| CC1CC(=O)C2=C(C1)OC(N)=C(C#N)C21CCC2(CC1)OCCO2 (configuration not stated) | inactive: 1.03 |
| Cn1cccc1/C=N/NC(=O)c1ccco1 | inactive: 1.2 |
| O=[N+]([O-])c1ccc(/C=N\n2cnnc2)s1 | inactive: 1.96 |
| Cc1cc(O)n2nc(N)nc2n1 | inactive: 1.4 |
| O=C1c2ccccc2C2(O)N(c3ccccc3)C(=S)N(c3ccccc3)C12O (configuration not stated) | inactive: 0.874 |
| O=C(O)c1nn(Cn2cccn2)cc1Cl | inactive: 1.07 |
| CCOC(=O)C/C(C)=N/Nc1nc2sc(C)c(C)c2c(=O)[nH]1 | inactive: 0.881 |
| C(=N/n1cnnc1)/c1ccco1 | inactive: 1.05 |
| Nc1ccc(N2CCOCC2)c(Br)c1 | inactive: 1.18 |
| Cc1nc2sc3c(O)nc(=O)[nH]c3c2c(C)c1C | inactive: 1.26 |
| CC1(C)OC(=O)N2c3ccccc3NC21C (configuration not stated) | inactive: 0.799 |
| CC1CCC(C(C)C)C(OCC(O)CNC(C)(C)C)C1 (configuration not stated) | inactive: 1.16 |
| Nc1nc2ccc(OC(F)(F)F)cc2s1 | inactive: 1.31 |
| c1ccc(N/N=C2/C/C(=N\Nc3ccccc3)c3ccccc32)cc1 | inactive: 1.06 |
| N#Cc1ccc(C(O)c2ccc(F)cc2)c(CO)c1 (configuration not stated) | inactive: 1.42 |

For convenience, six of the compounds above.

| SMILES | cell-surface Lgr5 expression |
| --- | --- |
| Cc1cnnn1-c1nonc1-n1cccc1 | inactive: 0.947 |
| CC1(C)C2CCC1(C)C(NC(=O)CCOCCC(N)=O)C2 (configuration not stated) | inactive: 1.65 |
| CC1CC(=O)C2=C(C1)OC(N)=C(C#N)C21CCC2(CC1)OCCO2 (configuration not stated) | inactive: 1.03 |
| Cn1cccc1/C=N/NC(=O)c1ccco1 | inactive: 1.2 |
| O=[N+]([O-])c1ccc(/C=N\n2cnnc2)s1 | inactive: 1.96 |
| Cc1cc(O)n2nc(N)nc2n1 | inactive: 1.4 |

Later entries

| SMILES | cell-surface Lgr5 expression |
| --- | --- |
| Cc1nn(CC#N)c(C)c1Cl | inactive: 1.2 |
| N=C1NC(=O)/C(=C\c2ccco2)S1 | inactive: 1.18 |
| Nc1nnc(CS(=O)(=O)CC(=O)O)s1 | inactive: 1.17 |
| N#CC1=C(N)SC(N)=C(C#N)C1c1ccc(F)c(Br)c1 | inactive: 1.22 |
| Nc1cc2[nH]c(=O)[nH]c2cc1N | inactive: 1.16 |
| CN(CC12CC3CC(CC(C3)C1)C2)S(=O)(=O)N1CCCCC1 | inactive: 0.917 |
| O=c1c2ccccc2oc2cccnc12 | inactive: 1.01 |
| COCc1c(C)cc(C)c(/C=N\O)c1C | inactive: 1.15 |
| Cc1ccc(C2=NNC(C)(c3ccc(C4CCCCC4)cc3)S2)cc1 (configuration not stated) | inactive: 0.355 |
| C[n+]1noc([O-])c1-c1ccccc1 | inactive: 1.09 |
| OC(Cn1c2ccccc2c2ccccc21)C[n+]1cccc2ccccc21 (configuration not stated) | inactive: 1.65 |
| Cc1sc(N)c(C(N)=O)c1C | inactive: 1.18 |
| CCn1cc(Cn2cc(N)cn2)cn1 | inactive: 1.3 |
| N#Cc1cc2n[nH]nc2cc1C#N | inactive: 1.02 |
| COc1cccnc1Br | inactive: 1.03 |
| O=S(=O)([O-])c1cc(-c2nnc(-c3ccccn3)nc2-c2ccc(S(=O)(=O)[O-])o2)co1 | inactive: 0.946 |
| Cc1ccc(-c2cn3cccc(C)c3n2)cc1 | inactive: 0.887 |
| C=CCn1c(-c2ccccc2Br)n[nH]c1=S | inactive: 1.11 |
| Nc1ccc2nn(-c3ccc(Cl)cc3)nc2c1 | inactive: 0.928 |
| CC1CCN(C(=S)NC2CCCCC2)CC1 | inactive: 1.25 |
| c1ccc(-c2ccc(-c3ccccn3)nn2)nc1 | inactive: 0.56 |
| O=C(NC1C2CC3CC(C2)CC1C3)c1cnccn1 (configuration not stated) | inactive: 1.13 |
| COC(=O)N1C(=O)OC2CSCC21 (configuration not stated) | inactive: 1.18 |
| O=C1c2ccccc2-c2nn3nnnc3nc21 | inactive: 1.54 |

| SMILES | cell-surface Lgr5 expression |
| --- | --- |
| COC(=O)c1c(NC(=O)CCCC(=O)O)sc2c1CCC2 | inactive: 1.04 |
| FC(F)(F)COc1nc(NCCOC23CC4CC(CC(C4)C2)C3)nc(N2CCCCC2)n1 | inactive: 0.871 |
| O=C1NC(=O)C(c2ccccc2)(c2ccccc2)N1 | inactive: 1.12 |
| CCC(C)(C#CCN1CCCC1)OCCC#N (configuration not stated) | inactive: 1.2 |
| Cc1ccc(S(=O)(=O)N2CCN(S(C)(=O)=O)C2C)cc1 (configuration not stated) | inactive: 1.27 |
| Cn1c(COc2ccccc2)nn(CN2CCC3(CC2)OCCO3)c1=S | inactive: 1.43 |
| Cc1sc2ncnc(Cl)c2c1C | inactive: 1.39 |
| C=CCN(CC=C)S(=O)(=O)c1ccc(OC)cc1 | inactive: 1.08 |
| O=[N+]([O-])c1c(Cl)ncnc1Cl | inactive: 1.16 |
| NC(=O)c1nc(S)n(CC2CCCO2)c1N (configuration not stated) | inactive: 1.23 |
| Nc1n/c(=N/c2ccccc2)ss1 | inactive: 0.922 |
| C/C(O)=C1/C(=O)NC(=O)SC1=O | inactive: 1.41 |
| CS(=O)(=O)N1CCc2ccccc2C1 | inactive: 1.06 |
| CC1(C)CC2(CC(C)(C)N1)OC(=O)N(CCO)C2(C)O (configuration not stated) | inactive: 1.09 |
| Brc1cccc(C2=Nn3c(nnc3-c3ccccn3)SC2)c1 | inactive: 1.46 |
| CCOc1ccc2c(c1)-c1c(ssc1=S)C(C)(C)N2C | inactive: 1.26 |
| O=S1(=O)N=C(N/N=C/c2cc(Cl)ccc2O)c2ccccc21 | inactive: 0.817 |
| C#CCN1C(=O)S/C(=C\c2ccc(N3CCOCC3)o2)C1=O | inactive: 0.992 |
| CCOC(=O)c1sc(N2N=C(C)/C(=C/c3ccc(C)o3)C2=O)nc1C | inactive: 1.1 |
| Brc1coc2ccccc12 | inactive: 1.11 |
| Clc1cnc2nc(-c3ccccn3)[nH]c2c1 | inactive: 0.934 |
| N#CCNS(=O)(=O)c1cc(Cl)ccc1Cl | inactive: 1.18 |
| Nc1nc(-c2ccncc2)n[nH]1 | inactive: 0.857 |
| Cc1cc2nc(S)[nH]c2cc1C | inactive: 1.11 |
